This is an account of results in paper PMC6370214.

Chains of the proteins cited; added tags and fusions are not shown.
UniProt Q04887: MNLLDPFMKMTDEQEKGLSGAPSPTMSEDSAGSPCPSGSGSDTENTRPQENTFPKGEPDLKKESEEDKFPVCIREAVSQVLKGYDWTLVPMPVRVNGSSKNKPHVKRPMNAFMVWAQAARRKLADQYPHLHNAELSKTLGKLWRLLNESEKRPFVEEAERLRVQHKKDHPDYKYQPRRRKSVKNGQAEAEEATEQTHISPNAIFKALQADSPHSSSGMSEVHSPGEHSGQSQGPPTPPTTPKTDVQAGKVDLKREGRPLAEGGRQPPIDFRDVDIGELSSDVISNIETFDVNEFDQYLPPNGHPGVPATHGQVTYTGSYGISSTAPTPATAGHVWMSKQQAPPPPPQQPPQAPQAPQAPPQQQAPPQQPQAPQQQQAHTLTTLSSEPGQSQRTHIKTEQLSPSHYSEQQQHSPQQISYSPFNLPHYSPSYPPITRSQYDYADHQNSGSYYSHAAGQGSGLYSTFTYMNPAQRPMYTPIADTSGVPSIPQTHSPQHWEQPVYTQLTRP
UniProt Q8VIM5: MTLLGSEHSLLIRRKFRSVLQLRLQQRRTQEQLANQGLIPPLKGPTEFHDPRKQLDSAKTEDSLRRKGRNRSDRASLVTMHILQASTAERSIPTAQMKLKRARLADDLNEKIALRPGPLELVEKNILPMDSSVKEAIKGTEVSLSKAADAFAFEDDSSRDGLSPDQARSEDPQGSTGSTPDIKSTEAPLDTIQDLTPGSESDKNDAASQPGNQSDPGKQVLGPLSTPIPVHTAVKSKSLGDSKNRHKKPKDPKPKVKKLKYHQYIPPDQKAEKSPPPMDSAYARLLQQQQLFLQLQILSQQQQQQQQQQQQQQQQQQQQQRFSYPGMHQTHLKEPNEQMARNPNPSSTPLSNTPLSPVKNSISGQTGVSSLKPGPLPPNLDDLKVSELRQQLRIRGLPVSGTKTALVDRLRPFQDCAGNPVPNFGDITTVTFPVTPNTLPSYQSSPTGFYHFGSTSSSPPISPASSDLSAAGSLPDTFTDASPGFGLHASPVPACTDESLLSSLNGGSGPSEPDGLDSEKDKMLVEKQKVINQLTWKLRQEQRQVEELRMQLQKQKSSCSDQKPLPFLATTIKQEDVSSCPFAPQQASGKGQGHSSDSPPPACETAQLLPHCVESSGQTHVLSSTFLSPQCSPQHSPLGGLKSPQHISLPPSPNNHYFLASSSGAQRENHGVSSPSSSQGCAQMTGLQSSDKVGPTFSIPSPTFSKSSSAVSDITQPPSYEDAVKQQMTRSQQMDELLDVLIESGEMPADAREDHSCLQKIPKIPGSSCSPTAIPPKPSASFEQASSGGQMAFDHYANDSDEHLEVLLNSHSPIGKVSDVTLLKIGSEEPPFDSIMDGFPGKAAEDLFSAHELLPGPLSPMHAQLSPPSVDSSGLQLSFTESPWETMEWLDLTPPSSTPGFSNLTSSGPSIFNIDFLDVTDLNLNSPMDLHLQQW

For one experiment, the target named is Flag-tagged SOX9 (UniProt Q04887). As to the kind of experiment: co-IP; HEK293T cells transfected with HA-tagged TSHZ3 constructs and Flag-tagged SOX9; immunoprecipitated with a Flag antibody, then immunoblotting (Fig 1F-I).
Experiment [1] addresses Flag-tagged MYOCD (UniProt Q8VIM5). As to the kind of experiment: co-IP; HEK293T cells transfected with HA-tagged TSHZ3 constructs and Flag-tagged MYOCD; immunoprecipitated with a Flag antibody, then immunoblotting (Fig 5B-E). For orientation: In western blotting, separated proteins are transferred to a membrane and probed.
Experiment [2] shares this target. Description: co-IP; HEK293T cells co-transfected with HA-SRF, HA-SOX9, HA-TSHZ3 or HA-TSHZ3-trunc and Flag-MYOCD; Flag-MYOCD immunoprecipitated from nuclear extracts, HA-tagged proteins detected by Western blotting (Fig 6A-C).

Results are given in words; binding and its absence hold for the method and conditions named. In cells and extracts the contact can be indirect. Some entries that bind do so weakly or less than the wild type. Tags and fused reporters may be left off the sequences shown.

B1: TSHZ3 full length, HA-tagged (protein, UniProt Q8CGV9 1-1081)
chain: MPRRKQQAPRRAAAYVSDELKAAALVEDDVEPEEQAADGEPSAKYMCPEKELSKACPSYQNSPAAEFSSHEMDSESHISETSDRMADFESSSIKNEEETKEVQVPLEDTTVSDSLEQMKAVYNNFLSNSYWSNLNLNLHQPSSENNGGSSSSSSSSSSSCGSGSFDWHQSAMAKTLQQVSQNRMLPEPSLFSTVQLYRQSSKLYGSIFTGASKFRCKDCSAAYDTLVELTVHMNETGHYRDDNHETDNNNPKRWSKPRKRSLLEMEGKEDAQKVLKCMYCGHSFESLQDLSVHMIKTKHYQKVPLKEPVTPVAAKIIPAARKKPSLELELPSSPDSTGGTPKATLSDASDALQKNSNPYITPNNRYGHQNGASYAWHFEARKSQILKCMECGSSHDTLQELTAHMMVTGHFIKVTNSAMKKGKPIMETPVTPTITTLLDEKVQSVPLAATTFTSPSNTPASVSPKLAVEIKKEVDKEKAVPDEKPKEREKPSEEEEKYDISSKYHYLTENDLEESPKGGLDILKSLENTVTSAINKAQNGTPSWGGYPSIHAAYQLPNMMKLSLGSSGKSTPLKPMFGNSEIVSPTKTQTLVSPPSSQTSPMPKTNFHAMEELVKKVTEKVAKVEEKMKEPEGKLSPPKRATPSPCSSEQSEPIKMEASSDGSFKSQENSPSPPRDACKEASPSAEPVENGKELVKPLSGGLSGSTAIITDHPPEQPFVNPLSALQSVMNIHLGKAAKPSLPALDPMSMLFKMSNSLAEKAAVATPPPLQAKKAEHLDRYFYHVNNDQPIDLTKGKSDKGCSLGSGLLSPTSTSPATSSSTVTTAKTSAVVSFMSNSPLRENALSDISDMLKNLTESHTSKSSTPSSISEKSDIDGATLEEAEESTPAQKRKGRQSNWNPQHLLILQAQFAASLRQTSEGKYIMSDLSPQERMHISRFTGLSMTTISHWLANVKYQLRRTGGTKFLKNLDTGHPVFFCNDCASQIRTPSTYISHLESHLGFRLRDLSKLSTEQINNQIAQTKSPSEKLVTSSPEEDLGTTYQCKLCNRTFASKHAVKLHLSKTHGKSPEDHLLFVSELEKQ
In the case of B1, the binding entry with Flag-tagged SOX9, with Flag-tagged MYOCD [1] and in the experiment with Flag-tagged MYOCD [2] was “binds” in each case.

B2: HA-SRF (protein, UniProt Q9JM73 1-504)
chain: MLPSQAGAAAALGRGSALGGNLNRTPTGRPGGGGGTRGANGGRVPGNGAGLGQSRLEREAAAAAAPTAGALYSGSEGDSESGEEEELGAERRGLKRSLSEMELGVVVGGPEAAAAAAGGYGPVSGAVSGAKPGKKTRGRVKIKMEFIDNKLRRYTTFSKRKTGIMKKAYELSTLTGTQVLLLVASETGHVYTFATRKLQPMITSETGKALIQTCLNSPDSPPRSDPTTDQRMSATGFEEPDLTYQVSESDSSGETKDTLKPAFTVTNLPGTTSTIQTAPSTSTTMQVSSGPSFPITNYLAPVSASVSPSAVSSANGTVLKSTGSGPVSSGGLMQLPTSFTLMPGGAVAQQVPVQAIHVHQAPQQASPSRDSSTDLTQTSSSGTVTLPATIMTSSVPTTVGGHMMYPSPHAVMYAPTSGLADGSLTVLNAFSQAPSTMQVSHSQVQEPGGVPQVFLTAPSGTVQIPVSAVQLHQMAVIGQQAGSSSNLTELQVVNLDATHSTKSE
Turning to B2, the binding result in the experiment with Flag-tagged MYOCD [2] is “binds”.
